Results are given in words; binding and its absence hold for the method and conditions named. Binding seen in cells or lysates may run through a third protein. Some binding calls cover weakened binding; strength is not graded here. For some assays here: Tags and fused reporters may be left off the sequences shown.
B1: endogenous RNF8 (protein, UniProt O76064 1-485)
chain: MGEPGFFVTGDRAGGRSWCLRRVGMSAGWLLLEDGCEVTVGRGFGVTYQLVSKICPLMISRNHCVLKQNPEGQWTIMDNKSLNGVWLNRARLEPLRVYSIHQGDYIQLGVPLENKENAEYEYEVTEEDWETIYPCLSPKNDQMIEKNKELRTKRKFSLDELAGPGAEGPSNLKSKINKVSCESGQPVKSQGKGEVASTPSDNLDPKLTALEPSKTTGAPIYPGFPKVTEVHHEQKASNSSASQRSLQMFKVTMSRILRLKIQMQEKHEAVMNVKKQTQKGNSKKVVQMEQELQDLQSQLCAEQAQQQARVEQLEKTFQEEEQHLQGLEIAQGEKDLKQQLAQALQEHWALMEELNRSKKDFEAIIQAKNKELEQTKEEKEKMQAQKEEVLSHMNDVLENELQCIICSEYFIEAVTLNCAHSFCSYCINEWMKRKIECPICRKDIKSKTYSLVLDNCINKMVNNLSSEVKERRIVLIRERKAKRLF
B2: Flag-FOXM1 (protein, UniProt Q08050 1-763)
chain: MKTSPRRPLILKRRRLPLPVQNAPSETSEEEPKRSPAQQESNQAEASKEVAESNSCKFPAGIKIINHPTMPNTQVVAIPNNANIHSIITALTAKGKESGSSGPNKFILISCGGAPTQPPGLRPQTQTSYDAKRTEVTLETLGPKPAARDVNLPRPPGALCEQKRETCADGEAAGCTINNSLSNIQWLRKMSSDGLGSRSIKQEMEEKENCHLEQRQVKVEEPSRPSASWQNSVSERPPYSYMAMIQFAINSTERKRMTLKDIYTWIEDHFPYFKHIAKPGWKNSIRHNLSLHDMFVRETSANGKVSFWTIHPSANRYLTLDQVFKPLDPGSPQLPEHLESQQKRPNPELRRNMTIKTELPLGARRKMKPLLPRVSSYLVPIQFPVNQSLVLQPSVKVPLPLAASLMSSELARHSKRVRIAPKVLLAEEGIAPLSSAGPGKEEKLLFGEGFSPLLPVQTIKEEEIQPGEEMPHLARPIKVESPPLEEWPSPAPSFKEESSHSWEDSSQSPTPRPKKSYSGLRSPTRCVSEMLVIQHRERRERSRSRRKQHLLPPCVDEPELLFSEGPSTSRWAAELPFPADSSDPASQLSYSQEVGGPFKTPIKETLPISSTPSKSVLPRTPESWRLTPPAKVGGLDFSPVQTSQGASDPLPDPLGLMDLSTTPLQSAPPLESPQRLLSSEPLDLISVPFGNSSPSDIDVPKPGSPEPQVSGLAANRSLTEGLVLDTMNDSLSKILLDISFPGLDEDPLGPDNINWSQFIPELQ

Legend:
[1] = molecular target: T1, endogenous FOXM1 (human (endogenous in MCF-7)) (UniProt Q08050); assay: co-IP; endogenous proteins of MCF-7 cells, epirubicin (1 μM) for 0, 6 and 24 h (Figure 4 with MG132; Figure 7b vehicle); IP with an RNF168 antibody or a FOXM1 antibody, IgG as control; blot for RNF168, RNF8 and FOXM1
T1 sequence: B2 chain

HA-RNF8 = molecular target: T2, HA-RNF8 (UniProt O76064); assay: co-IP; MCF-7 cells co-transfected with HA-RNF8 and Flag-FOXM1, epirubicin (1 μM) for 0, 6 and 24 h, pretreated with 10 μM MG132; IP products with αHA probed for Flag-FOXM1 and HA-RNF8
T2 sequence: B1 chain

Binder | binding [1] | binding (HA-RNF8)
B1 | binds | 
B2 |  | binds

— publication PMC5007831
